Experimental data taken from article PMC5785358, “The STENOFOLIA gene from Medicago alters leaf width, flowering time and chlorophyll content in transgenic wheat”.
Protein sequences can lack the tags named with them.

Biological target: T1, MBP-STF full length (STENOFOLIA) (Medicago truncatula) (UniProt G0ZGT3)
T1 sequence (looked up): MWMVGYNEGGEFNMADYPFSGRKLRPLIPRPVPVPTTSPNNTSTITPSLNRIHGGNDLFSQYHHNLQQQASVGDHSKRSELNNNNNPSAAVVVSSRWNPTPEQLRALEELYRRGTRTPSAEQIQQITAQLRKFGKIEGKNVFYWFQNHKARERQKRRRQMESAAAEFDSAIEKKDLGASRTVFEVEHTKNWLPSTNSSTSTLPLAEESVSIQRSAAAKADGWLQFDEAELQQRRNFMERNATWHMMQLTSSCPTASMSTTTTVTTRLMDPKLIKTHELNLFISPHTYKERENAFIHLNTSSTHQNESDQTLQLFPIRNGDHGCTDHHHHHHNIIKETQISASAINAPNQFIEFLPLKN
Experiment: EMSA
Details: 10 mM Tris pH 7.5, 50 mM KCl, 1 mM DTT, 2.5% glycerol, 0.05% NP-40, 5 mM MgCl2, 0.5 mM EDTA, 5 ng/uL poly(dI.dC), 1 ug protein, 100 fmol probe, room temperature 40 min; recombinant protein; residues 1-358; protein details: MBP (N-terminal, pMAL-c2X); label: 3' biotin

Sequence	binding result
TTGCAGATACCAATGCAGTAATGCAATCTTCCTGCCTATATAAAGCACCCCGTTAGCAACCTTACAATTCAGGCGAAGAGGTTCAACGAACACAGAGAGCTCCTCTCCAAACCTCTCCCTTCTCCCCGCCAGGAGTCTAGGGTTAGAGAGAGAGAGAGAGAGTGAGACAAGAGCAAAAATAATCTCTCGCCCCACTGTTATACCAAGGTTGCATCCATCTCATATCCCTC (double strand) [TaSWEET13-D1 probe]	binds
ATCCATTCCAGATTGCATAAGTGCAGCGTTTCTGATCAGCCAAGCAAGAGACAAGGGTTGTTCACGTGATCATGGACCCATGACACACCATTATAGCAACCTTCCAACCTAAAAATAGACCATCAAATCCTTTTCACTCACTGTCTGCCACTCCCCAGCCTCCCTGTATTTAAACCCATGCATTAGCCGTGAGAGAAACTAAATCGAACTAAAAGAGGGTGATCCAGTGAGCACAAACATGTCTGCCTCTGTCATG (double strand) [TaPSR-D1 probe]	binds
